Some of these results come from one statement about several compounds together.
Legend:
M2 muscarinic receptor = M2 muscarinic receptor (Rattus norvegicus, UniProt P10980); type: binding; conditions: read-out: Ki for rat M2 receptor
M3 muscarinic receptor = M3 muscarinic receptor (Rattus norvegicus, UniProt P08483); type: binding; conditions: read-out: Ki for rat M3 receptor

The chains behind the UniProt entries cited, without tags or fusion partners.
UniProt P10980, whole entry: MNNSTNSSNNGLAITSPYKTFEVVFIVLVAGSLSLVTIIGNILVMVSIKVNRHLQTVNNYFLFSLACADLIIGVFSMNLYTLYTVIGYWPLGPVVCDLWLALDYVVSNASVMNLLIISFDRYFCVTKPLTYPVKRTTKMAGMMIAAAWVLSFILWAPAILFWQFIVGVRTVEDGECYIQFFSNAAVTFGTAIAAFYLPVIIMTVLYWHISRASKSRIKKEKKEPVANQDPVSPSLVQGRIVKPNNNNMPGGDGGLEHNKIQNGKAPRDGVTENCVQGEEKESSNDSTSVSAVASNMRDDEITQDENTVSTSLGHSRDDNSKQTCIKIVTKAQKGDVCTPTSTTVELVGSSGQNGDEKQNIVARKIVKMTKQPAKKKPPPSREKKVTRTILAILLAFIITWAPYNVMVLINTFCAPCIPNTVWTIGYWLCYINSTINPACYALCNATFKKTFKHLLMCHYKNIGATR
UniProt P08483, whole entry: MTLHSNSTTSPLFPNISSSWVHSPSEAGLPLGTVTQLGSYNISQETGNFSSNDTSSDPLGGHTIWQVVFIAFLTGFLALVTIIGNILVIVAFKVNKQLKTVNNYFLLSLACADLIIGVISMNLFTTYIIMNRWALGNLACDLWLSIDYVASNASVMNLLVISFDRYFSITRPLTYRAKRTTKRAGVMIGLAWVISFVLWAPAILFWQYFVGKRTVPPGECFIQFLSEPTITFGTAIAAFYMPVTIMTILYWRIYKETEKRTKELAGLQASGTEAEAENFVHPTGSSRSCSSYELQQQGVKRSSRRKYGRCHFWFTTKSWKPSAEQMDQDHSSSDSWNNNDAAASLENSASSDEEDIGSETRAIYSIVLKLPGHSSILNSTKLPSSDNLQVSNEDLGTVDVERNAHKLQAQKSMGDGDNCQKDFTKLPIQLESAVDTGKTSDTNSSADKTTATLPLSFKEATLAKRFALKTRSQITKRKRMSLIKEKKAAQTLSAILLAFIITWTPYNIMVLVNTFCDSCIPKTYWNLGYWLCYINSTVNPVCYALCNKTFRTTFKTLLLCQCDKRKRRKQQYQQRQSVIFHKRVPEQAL

SMILES | Ki (M2 muscarinic receptor) | Ki (M3 muscarinic receptor)
O=C(OC1C2CCC1NC2)C(O)c1ccccc1C1CCCC1 (stereo not drawn) [Compound 4, 2-Azabicyclo[2.2.1]hept-7-yl-2-cyclopentyl(hydroxy)phenylacetate] | ≥ 2 nM | ≥ 2 nM
CC(C(=O)NC1C2CCC1N(Cc1ccccc1)C2)(c1ccccc1)c1ccccc1 (stereo not drawn) [Compound 7, N-(2-benzyl-2-azabicyclo[2.2.1]hept-7-yl)-2,2-diphenylpropanamide] | ≥ 2 nM | ≥ 2 nM
O=C(NC1C2CCC1N(Cc1ccccc1)C2)C(O)(c1cccs1)C1CCCC1 (stereo not drawn) [Compound 8, N-(2-benzyl-2-azabicyclo[2.2.1]hept-7-yl)-2-cyclopentyl-2-hydroxy-2-(2-thienyl)acetamide] | ≥ 2 nM | ≥ 2 nM
O=C(NC1C2CCC1N(Cc1ccccc1)C2)C(O)(c1ccccc1)c1cccs1 (stereo not drawn) [Compound 9, N-(2-benzyl-2-azabicyclo[2.2.1]hept-7-yl)-2-hydroxy-2-phenyl-2-(2-thienyl)acetamide] | ≥ 2 nM | ≥ 2 nM
O=C(NC1C2CCC1N(Cc1ccccc1)C2)C(O)(c1ccccc1)C1CCCC1 (stereo not drawn) [Compound 10, N-(2-benzyl-2-azabicyclo[2.2.1]hept-7-yl)-2-cyclopentyl-2-hydroxy-2-phenylacetamide] | ≥ 2 nM | ≥ 2 nM
CC(C(=O)OC1C2CCC1N(Cc1ccccc1)C2)(c1ccccc1)c1ccccc1 (stereo not drawn) [Compound 11, 2-Benzyl-2-azabicyclo[2.2.1]hept-7-yl 2,2-diphenylpropanoate] | ≥ 2 nM | ≥ 2 nM
CC(C(=O)OC1C2CCC1NC2)(c1ccccc1)c1ccccc1 (stereo not drawn) [Compound 12, 2-Azabicyclo[2.2.1]hept-7-yl 2,2-diphenylpropanoate] | ≥ 2 nM | ≥ 2 nM
O=C(NC1C2CCC1N(Cc1ccccc1)C2)C(O)(c1ccccc1)c1ccccc1 (stereo not drawn) [Compound 13, N-(2-benzyl-2-azabicyclo[2.2.1]hept-7-yl)-2-hydroxy-2,2-diphenylacetamide] | ≥ 2 nM | ≥ 2 nM
O=C(NC1C2CCC1NC2)C(O)(c1ccccc1)c1ccccc1 (stereo not drawn) [Compound 14, N-2-azabicyclo[2.2.1]hept-7-yl-2-hydroxy-2,2-diphenylacetamide] | ≥ 2 nM | ≥ 2 nM
CC(C(=O)NC1C2CCC1NC2)(c1ccccc1)c1ccccc1 (stereo not drawn) [Compound 15, N-2-azabicyclo[2.2.1]hept-7-yl-2,2-diphenylpropanamide] | ≥ 2 nM | ≥ 2 nM
O=C(NC1C2CCC1NC2)C(O)(c1ccccc1)C1CCCC1 (stereo not drawn) [Compound 16, N-2-azabicyclo[2.2.1]hept-7-yl-2-cyclopentyl-2-hydroxy-2-phenylacetamide] | ≥ 2 nM | ≥ 2 nM
COC(C(=O)OC1C2CCC1N(Cc1ccccc1)C2)(c1ccccc1)c1ccccc1 (stereo not drawn) [Compound 18, 2-Benzyl-2-azabicyclo[2.2.1]hept-7-yl methoxy(diphenyl)acetate] | ≥ 2 nM | ≥ 2 nM

From US20090137623A1 (priority 2005, published 2009)
